This is an account of results in publication PMC12315505.

Protein sequences, listed by entry. Tags and fused reporters are not part of them.
UniProt Q9UPY3: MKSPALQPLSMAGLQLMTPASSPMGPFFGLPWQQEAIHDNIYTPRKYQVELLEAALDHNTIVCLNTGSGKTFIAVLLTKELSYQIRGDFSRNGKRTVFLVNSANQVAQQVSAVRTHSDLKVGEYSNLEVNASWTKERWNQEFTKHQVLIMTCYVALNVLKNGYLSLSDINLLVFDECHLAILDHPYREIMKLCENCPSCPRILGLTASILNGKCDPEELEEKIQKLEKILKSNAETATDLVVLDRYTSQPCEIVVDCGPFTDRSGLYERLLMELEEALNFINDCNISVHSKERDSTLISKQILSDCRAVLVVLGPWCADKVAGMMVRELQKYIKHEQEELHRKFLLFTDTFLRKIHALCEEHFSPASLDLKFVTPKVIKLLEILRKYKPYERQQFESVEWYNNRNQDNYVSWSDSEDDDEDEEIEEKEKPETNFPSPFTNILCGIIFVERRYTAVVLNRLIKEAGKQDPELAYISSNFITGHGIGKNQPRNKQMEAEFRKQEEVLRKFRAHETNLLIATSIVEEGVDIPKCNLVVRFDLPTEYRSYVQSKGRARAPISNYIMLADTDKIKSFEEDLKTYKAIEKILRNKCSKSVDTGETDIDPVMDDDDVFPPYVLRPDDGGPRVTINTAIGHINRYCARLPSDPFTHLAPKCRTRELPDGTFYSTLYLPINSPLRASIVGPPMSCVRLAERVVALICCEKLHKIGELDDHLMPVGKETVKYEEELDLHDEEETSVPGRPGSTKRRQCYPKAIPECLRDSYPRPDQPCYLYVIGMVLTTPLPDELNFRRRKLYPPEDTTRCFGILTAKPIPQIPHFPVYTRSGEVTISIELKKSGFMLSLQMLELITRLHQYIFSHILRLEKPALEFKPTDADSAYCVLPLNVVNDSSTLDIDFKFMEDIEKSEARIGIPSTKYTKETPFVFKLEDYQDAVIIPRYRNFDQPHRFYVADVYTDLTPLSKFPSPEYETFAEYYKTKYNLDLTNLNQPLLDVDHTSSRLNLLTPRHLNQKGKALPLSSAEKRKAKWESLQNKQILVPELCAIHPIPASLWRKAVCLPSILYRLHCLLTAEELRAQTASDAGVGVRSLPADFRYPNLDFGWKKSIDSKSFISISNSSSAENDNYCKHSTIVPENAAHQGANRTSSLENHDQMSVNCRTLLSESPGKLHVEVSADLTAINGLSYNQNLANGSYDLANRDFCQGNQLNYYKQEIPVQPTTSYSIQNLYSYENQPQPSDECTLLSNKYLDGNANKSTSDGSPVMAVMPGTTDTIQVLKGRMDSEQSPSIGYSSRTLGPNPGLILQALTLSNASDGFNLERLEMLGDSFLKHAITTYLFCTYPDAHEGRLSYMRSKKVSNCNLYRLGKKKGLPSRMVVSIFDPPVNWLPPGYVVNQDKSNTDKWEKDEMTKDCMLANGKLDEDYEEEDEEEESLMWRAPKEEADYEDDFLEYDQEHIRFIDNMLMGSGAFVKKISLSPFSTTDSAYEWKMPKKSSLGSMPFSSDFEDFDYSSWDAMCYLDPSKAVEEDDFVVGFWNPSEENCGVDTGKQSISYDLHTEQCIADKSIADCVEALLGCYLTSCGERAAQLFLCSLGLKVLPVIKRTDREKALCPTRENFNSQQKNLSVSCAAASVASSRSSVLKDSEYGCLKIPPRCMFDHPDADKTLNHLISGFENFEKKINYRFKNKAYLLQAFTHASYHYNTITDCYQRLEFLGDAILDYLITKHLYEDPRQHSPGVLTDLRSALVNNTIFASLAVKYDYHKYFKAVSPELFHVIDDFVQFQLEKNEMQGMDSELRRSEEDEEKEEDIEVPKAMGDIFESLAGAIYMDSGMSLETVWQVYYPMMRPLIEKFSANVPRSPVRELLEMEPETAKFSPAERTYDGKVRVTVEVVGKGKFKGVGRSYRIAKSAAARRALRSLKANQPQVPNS

The target of this assay is Dicer (human (endogenous in MM6)) (UniProt Q9UPY3). In words: proximity ligation; in situ PLA (Duolink In Situ Red Starter Kit Mouse/Rabbit) in fixed, permeabilised wild-type MM6 cells differentiated with 1 ng/mL TGF-β and 50 nM calcitriol for 4 days; mouse anti-5-LO 6A12 and rabbit anti-Dicer; 5LOΔ MM6 cells as control gave no signals.

No constants are given. Whether binding was seen depends on the method and setting. Binding seen in cells or lysates may run through a third protein. Some results given as binding are weak or reduced against the parent protein; the word gives no strength.

B1: 5‐lipoxygenase (enzyme, UniProt P09917-1 1-674)
chain: MPSYTVTVATGSQWFAGTDDYIYLSLVGSAGCSEKHLLDKPFYNDFERGAVDSYDVTVDEELGEIQLVRIEKRKYWLNDDWYLKYITLKTPHGDYIEFPCYRWITGDVEVVLRDGRAKLARDDQIHILKQHRRKELETRQKQYRWMEWNPGFPLSIDAKCHKDLPRDIQFDSEKGVDFVLNYSKAMENLFINRFMHMFQSSWNDFADFEKIFVKISNTISERVMNHWQEDLMFGYQFLNGCNPVLIRRCTELPEKLPVTTEMVECSLERQLSLEQEVQQGNIFIVDFELLDGIDANKTDPCTLQFLAAPICLLYKNLANKIVPIAIQLNQIPGDENPIFLPSDAKYDWLLAKIWVRSSDFHVHQTITHLLRTHLVSEVFGIAMYRQLPAVHPIFKLLVAHVRFTIAINTKAREQLICECGLFDKANATGGGGHVQMVQRAMKDLTYASLCFPEAIKARGMESKEDIPYYFYRDDGLLVWEAIRTFTAEVVDIYYEGDQVVEEDPELQDFVNDVYVYGMRGRKSSGFPKSVKSREQLSEYLTVVIFTASAQHAAVNFGQYDWCSWIPNAPPTMRAPPPTAKGVVTIEQIVDTLPDRGRSCWHLGAVWALSQFQENELFLGMYPEEHFIEKPVKEAMARFRKNLEAIVSVIAERNKKKQLPYYYLSPDRIPNSVAI
B1: the binding entry is reported as “binds”.
